PMC6737903
No constants are given. Whether binding was seen depends on the method and setting. In cells and extracts the contact can be indirect. Some entries that bind do so weakly or less than the wild type.

The chains behind the UniProt entries cited, without tags or fusion partners. Where a name states a change or a piece, a line headed by the entry shows the natural chain unless it says otherwise.
UniProt P23023: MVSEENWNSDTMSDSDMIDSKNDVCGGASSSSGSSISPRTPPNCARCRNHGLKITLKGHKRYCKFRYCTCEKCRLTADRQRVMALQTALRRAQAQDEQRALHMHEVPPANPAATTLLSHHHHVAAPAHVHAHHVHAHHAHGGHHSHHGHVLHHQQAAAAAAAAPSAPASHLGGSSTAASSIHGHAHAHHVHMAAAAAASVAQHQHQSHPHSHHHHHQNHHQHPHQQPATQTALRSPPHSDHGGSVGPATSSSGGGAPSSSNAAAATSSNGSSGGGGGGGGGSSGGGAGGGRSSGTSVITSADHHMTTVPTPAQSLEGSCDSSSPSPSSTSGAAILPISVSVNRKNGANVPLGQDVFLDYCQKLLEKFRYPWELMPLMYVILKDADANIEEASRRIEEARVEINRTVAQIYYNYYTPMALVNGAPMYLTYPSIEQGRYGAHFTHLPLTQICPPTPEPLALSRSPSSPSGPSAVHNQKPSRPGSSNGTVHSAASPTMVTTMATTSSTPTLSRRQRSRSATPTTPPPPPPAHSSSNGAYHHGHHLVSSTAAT

Assays:
Assay in all cases: pull-down; GST pulldown: GST-tagged AbdB proteins or GST alone as bait; bacterially expressed His-tagged Dsx proteins as input cell lysates; Western blot; three repetitions; only the target purified
[1] = target: GST-AbdB-N (truncated version of AbdB-r, aa residues 89-270) (Drosophila) (UniProt P09087)
[2] = target: GST-AbdB-HD (aa residues 162-228) (Drosophila) (UniProt P09087)
[3] = target: GST-AbdB-NΔCTD (aa residues 89-228) (Drosophila) (UniProt P09087)
[4] = target: GST-AbdB-ΔN (aa residues 162-270) (Drosophila) (UniProt P09087)

Row | binding [1] | Substance | binding [2] | binding [3] | binding [4]
1 | binds | DsxΔN (aa residues 41-397) (from UniProt P23023 41-397) (domain or fragment) |  |  | 
2 |  | His-Dsx^CR (Dsx common region, aa residues 1-397) (from UniProt P23023 1-397) (domain or fragment) | binds | binds | binds
3 | binds | DsxΔDD (aa residues 1-356) (from UniProt P23023 1-356) (domain or fragment) |  |  | 
